Results are given in words; binding and its absence hold for the method and conditions named. In cells and extracts the contact can be indirect.

Amino acid sequences for entries named in this document (tags omitted). A change or cut given only in a name is not applied to a line headed by its entry.
UniProt Q03135: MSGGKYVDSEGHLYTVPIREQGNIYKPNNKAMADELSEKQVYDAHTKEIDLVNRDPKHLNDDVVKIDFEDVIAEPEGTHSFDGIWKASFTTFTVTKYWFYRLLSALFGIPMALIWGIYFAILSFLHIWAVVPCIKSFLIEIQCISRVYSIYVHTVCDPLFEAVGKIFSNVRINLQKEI
UniProt Q9HBA0: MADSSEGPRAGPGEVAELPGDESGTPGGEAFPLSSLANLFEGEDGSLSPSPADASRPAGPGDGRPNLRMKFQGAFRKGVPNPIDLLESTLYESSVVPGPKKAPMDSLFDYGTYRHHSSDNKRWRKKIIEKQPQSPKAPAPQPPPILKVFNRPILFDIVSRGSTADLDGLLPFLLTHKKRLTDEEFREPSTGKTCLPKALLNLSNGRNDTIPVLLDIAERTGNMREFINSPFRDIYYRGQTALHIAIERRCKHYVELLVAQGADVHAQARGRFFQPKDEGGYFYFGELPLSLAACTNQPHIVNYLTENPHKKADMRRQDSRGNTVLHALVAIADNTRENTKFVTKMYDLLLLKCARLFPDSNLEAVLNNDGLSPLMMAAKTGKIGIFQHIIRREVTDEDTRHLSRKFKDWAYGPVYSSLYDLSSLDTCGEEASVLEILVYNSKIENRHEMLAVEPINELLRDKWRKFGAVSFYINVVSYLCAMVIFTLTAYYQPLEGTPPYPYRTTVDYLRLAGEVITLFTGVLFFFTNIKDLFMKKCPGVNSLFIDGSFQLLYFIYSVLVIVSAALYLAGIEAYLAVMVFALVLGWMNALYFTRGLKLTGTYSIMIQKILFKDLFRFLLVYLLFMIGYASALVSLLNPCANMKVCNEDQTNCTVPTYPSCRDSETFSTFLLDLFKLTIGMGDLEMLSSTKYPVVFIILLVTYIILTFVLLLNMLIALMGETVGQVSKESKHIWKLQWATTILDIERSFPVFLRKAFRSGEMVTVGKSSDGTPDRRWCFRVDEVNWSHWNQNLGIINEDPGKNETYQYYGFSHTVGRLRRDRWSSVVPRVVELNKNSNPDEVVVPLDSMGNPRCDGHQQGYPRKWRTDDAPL

This assay has as its target caveolin-1 (human (endogenous in TM cells)) (UniProt Q03135). As to the kind of experiment: co-IP; Cav-1 antibody on Protein G Dynabeads; TM cell lysates (2% octylglucoside, 150 mM NaCl, 10 mM Tris-HCl pH 7.4, 0.5 mM EDTA, 0.1% Triton X-100) incubated 15 min at room temperature; input, bound and unbound fractions blotted for Cav-1 and TRPV4; control, MβCD- and MβCD:cholesterol-treated cells.

With “full-length variants of transient receptor potential vanilloid isoform 4 (TRPV4) (from UniProt Q9HBA0 1-871)”, the binding entry was “no binding”.

For the origin of these results see paper PMC8633027.
